Drawing on patent publication US20240082277A1, “MODIFIED ANTIHISTAMINE COMPOSITION AND ANTIVIRAL TREATMENT” (priority 2022, published 2024), this text covers EC50 for one compound.

In the assay the test system is SARS-CoV-2 Delta (B.1.617.2). The assay can be described thus: microbe, parasite or virus in culture. To be noted: Severe acute respiratory syndrome coronavirus 2, VeroE6/TMPRSS2, read-out: Efficacy (EC50) Delta.

Counter-ions that a name gives are not always drawn.

In the case of `CN(C)CCOC(c1ccccc1)c1ccccc1` [Diphenhydramine hydrochloride], the EC50 is over 1000 µg/mL.
